This note sets out measurements from publication PMC12706146.

These are yes or no findings as the source states them, for the method shown. For part of these data: Binding seen in cells or lysates may run through a third protein. Some binding calls cover weakened binding; strength is not graded here. Tags and fused reporters may be left off the sequences shown.

Assay [1] has as its target T1, His-tagged YgfB (E. coli) (UniProt P0A8C4).
T1 sequence: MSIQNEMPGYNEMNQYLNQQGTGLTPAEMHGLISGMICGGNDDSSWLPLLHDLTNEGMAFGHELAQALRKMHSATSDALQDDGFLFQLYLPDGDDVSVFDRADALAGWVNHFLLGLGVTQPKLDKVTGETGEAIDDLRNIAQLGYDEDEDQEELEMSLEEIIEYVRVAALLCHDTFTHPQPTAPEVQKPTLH
Briefly: pull-down; ligand fishing: 50 ug purified His-YgfB as bait mixed with MG1655 crude extract, held on TALON metal affinity resin, 25 min at 4°C, buffer A (50 mM Tris-HCl pH 8.0, 300 mM NaCl), eluted with 200 mM imidazole; SDS-PAGE with Coomassie; band identified by peptide mapping after in-gel tryptic digestion; only the target purified.

Assay [2] concerns the target T2, YgfB fused with T18 of adenylate cyclase (pUT18c-YgfB) (E. coli) (UniProt P0A8C4).
T2 sequence: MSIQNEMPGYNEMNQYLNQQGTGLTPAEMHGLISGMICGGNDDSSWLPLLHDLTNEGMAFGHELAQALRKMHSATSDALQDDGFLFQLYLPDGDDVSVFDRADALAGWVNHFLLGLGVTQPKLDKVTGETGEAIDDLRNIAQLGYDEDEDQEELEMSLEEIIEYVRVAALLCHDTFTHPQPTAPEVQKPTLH
The experiment in a line: two-hybrid; bacterial two-hybrid (adenylate cyclase T18/T25) in BTH101 cells, LB plate with 1 mM IPTG and 40 ug/ml X-gal, 24 h at 30°C, colour of the cells.

Assay [3] has as its target T1, His-tagged YgfB (E. coli). The experiment in a line: pull-down; crude extract of ER2566 overexpressing PssA mixed with crude extract of ER2566 overexpressing His-YgfB, TALON resin, 15 min at 4°C, buffer A (50 mM Tris-HCl pH 8.0, 300 mM NaCl), eluted with 200 mM imidazole; SDS-PAGE with Coomassie.

B1: phosphatidylserine synthase PssA (endogenous, MG1655 extract) (enzyme, UniProt P23830 1-451)
chain: MLSKFKRNKHQQHLAQLPKISQSVDDVDFFYAPADFRETLLEKIASAKQRICIVALYLEQDDGGKGILNALYEAKRQRPELDVRVLVDWHRAQRGRIGAAASNTNADWYCRMAQENPGVDVPVYGVPINTREALGVLHFKGFIIDDSVLYSGASLNDVYLHQHDKYRYDRYHLIRNRKMSDIMFEWVTQNIMNGRGVNRLDDVNRPKSPEIKNDIRLFRQELRDAAYHFQGDADNDQLSVTPLVGLGKSSLLNKTIFHLMPCAEQKLTICTPYFNLPAILVRNIIQLLREGKKVEIIVGDKTANDFYIPEDEPFKIIGALPYLYEINLRRFLSRLQYYVNTDQLVVRLWKDDDNTYHLKGMWVDDKWMLITGNNLNPRAWRLDLENAILIHDPQLELAPQREKELELIREHTTIVKHYRDLQSIADYPVKVRKLIRRLRRIRIDRLISRIL
With B1, the binding result in assay [1] was “binds”.

B2: PssA fused with T25 of adenylate cyclase (pKT25-PssA) (enzyme, UniProt P23830 1-451)
chain: MLSKFKRNKHQQHLAQLPKISQSVDDVDFFYAPADFRETLLEKIASAKQRICIVALYLEQDDGGKGILNALYEAKRQRPELDVRVLVDWHRAQRGRIGAAASNTNADWYCRMAQENPGVDVPVYGVPINTREALGVLHFKGFIIDDSVLYSGASLNDVYLHQHDKYRYDRYHLIRNRKMSDIMFEWVTQNIMNGRGVNRLDDVNRPKSPEIKNDIRLFRQELRDAAYHFQGDADNDQLSVTPLVGLGKSSLLNKTIFHLMPCAEQKLTICTPYFNLPAILVRNIIQLLREGKKVEIIVGDKTANDFYIPEDEPFKIIGALPYLYEINLRRFLSRLQYYVNTDQLVVRLWKDDDNTYHLKGMWVDDKWMLITGNNLNPRAWRLDLENAILIHDPQLELAPQREKELELIREHTTIVKHYRDLQSIADYPVKVRKLIRRLRRIRIDRLISRIL
Consider B2, for which, in assay [2], the binding result is “binds”.

B3: overexpressed PssA (pET24a-PssA) (enzyme, UniProt P23830 1-451)
chain: MLSKFKRNKHQQHLAQLPKISQSVDDVDFFYAPADFRETLLEKIASAKQRICIVALYLEQDDGGKGILNALYEAKRQRPELDVRVLVDWHRAQRGRIGAAASNTNADWYCRMAQENPGVDVPVYGVPINTREALGVLHFKGFIIDDSVLYSGASLNDVYLHQHDKYRYDRYHLIRNRKMSDIMFEWVTQNIMNGRGVNRLDDVNRPKSPEIKNDIRLFRQELRDAAYHFQGDADNDQLSVTPLVGLGKSSLLNKTIFHLMPCAEQKLTICTPYFNLPAILVRNIIQLLREGKKVEIIVGDKTANDFYIPEDEPFKIIGALPYLYEINLRRFLSRLQYYVNTDQLVVRLWKDDDNTYHLKGMWVDDKWMLITGNNLNPRAWRLDLENAILIHDPQLELAPQREKELELIREHTTIVKHYRDLQSIADYPVKVRKLIRRLRRIRIDRLISRIL
For B3, the binding entry in assay [3] is listed as “binds”.
